# From the supplement of paper PMC8728848
# The list shows a part of the results.
# B1: PX9937I-bfa-538-26-538 (Bacteroides fragilis) (protein)
# chain: DKLDLSPIDYYGSGSYWKTEAQATAYIDGIHKHLRDAAWQHTITFGELRGGRFITGASSDGMGVSNGDIILQNFDETHTGVSKFGDLFGRITNLNLFIARVTDATYLSDEMKNFYLGEVYGLRAFYYFDLYRIYGGVPLRLTADVVEGVIDPNKLYMARSTPKEVMTQIKSDLNKSMEYFGNMNDFDPYKRGKKVYWSKAATECLMGEVYLWTSKVTTGDDVANPADLTIAKTHLESVLNNYNLKMLDDFSQVFNAKNKANDEIIFAIRFLEGEATNSNGTFTYNVGTGSTKNRYQANGEVFGDALDIQNTGNQTYEYNKAVYQNFDDADTRKEATFIASYNKDGKTGELSLYGTHVRKNIGYVNAQGARVYCGDYIFYRLPWVYLTLAEIANMEGDNAAVAKYINLVRKRAYGNAWDETLYAYPETADFTTNELAILHEKDKEFIQEGQRWWDLRRMTLTKGGTPLVFCKEGSLLGDAPILNKSTEAHKLLWPIEKTMLNKDPALEQTPGYK
# What was measured:
# Assay in all cases: glycan array binding signal (z-score within array); higher = stronger binding
# Conditions in all cases: glycan notation: IUPAC condensed, linker removed
# [1] = molecular target: Fuc(a1-2)Gal6S(b1-3)GlcNAc6S
# Outline: (§1)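 The binding signal is a Z-score computed within each array and averaged over linkers. Arrays of the same protein sequence at different concentrations or buffers were also averaged together. Data originate from 3228 arrays in the Consortium for Functional Glycomics database, kept only where the protein sequence was available.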
# Fuc(a1-2)Gal6S(b1-4)Glc = molecular target: Fuc(a1-2)Gal6S(b1-4)Glc
# Outline: as §1
# [2] = molecular target: Fuc(a1-2)Gal6S(b1-4)Glc6S
# Outline: as §1
# Fuc(a1-2)[Gal(a1-3)]Gal = molecular target: Fuc(a1-2)[Gal(a1-3)]Gal
# Outline: as §1
# [3] = molecular target: Fuc(a1-2)[Gal(a1-3)]Gal(b1-3)GalNAc
# Outline: as §1
# [4] = molecular target: Fuc(a1-2)[Gal(a1-3)]Gal(b1-3)GalNAc(b1-3)Gal(a1-4)Gal(b1-4)Glc
# Outline: as §1
# [5] = molecular target: Fuc(a1-2)[Gal(a1-3)]Gal(b1-3)GlcNAc
# Outline: as §1
# [6] = molecular target: Fuc(a1-2)[Gal(a1-3)]Gal(b1-3)GlcNAc(b1-2)Man(a1-3)[Fuc(a1-2)[Gal(a1-3)]Gal(b1-3)GlcNAc(b1-2)Man(a1-6)]Man(b1-4)GlcNAc(b1-4)GlcNAc
# Outline: as §1
# [7] = molecular target: Fuc(a1-2)[Gal(a1-3)]Gal(b1-3)GlcNAc(b1-2)Man(a1-3)[Fuc(a1-2)[Gal(a1-3)]Gal(b1-3)GlcNAc(b1-2)Man(a1-6)]Man(b1-4)GlcNAc(b1-4)[Fuc(a1-6)]GlcNAc
# Outline: as §1
# [8] = molecular target: Fuc(a1-2)[Gal(a1-3)]Gal(b1-3)GlcNAc(b1-3)GalNAc
# Outline: as §1
# [9] = molecular target: Fuc(a1-2)[Gal(a1-3)]Gal(b1-3)GlcNAc(b1-6)GalNAc
# Outline: as §1
# [10] = molecular target: Fuc(a1-2)[Gal(a1-3)]Gal(b1-4)Glc
# Outline: as §1
# [11] = molecular target: Fuc(a1-2)[Gal(a1-3)]Gal(b1-4)GlcNAc
# Outline: as §1
# [12] = molecular target: Fuc(a1-2)[Gal(a1-3)]Gal(b1-4)GlcNAc(b1-2)Man
# Outline: as §1
# [13] = molecular target: Fuc(a1-2)[Gal(a1-3)]Gal(b1-4)GlcNAc(b1-2)Man(a1-3)[Fuc(a1-2)[Gal(a1-3)]Gal(b1-4)GlcNAc(b1-2)Man(a1-6)]Man(b1-4)GlcNAc(b1-4)GlcNAc
# Outline: as §1
# [14] = molecular target: Fuc(a1-2)[Gal(a1-3)]Gal(b1-4)GlcNAc(b1-2)Man(a1-3)[Fuc(a1-2)[Gal(a1-3)]Gal(b1-4)GlcNAc(b1-2)Man(a1-6)]Man(b1-4)GlcNAc(b1-4)[Fuc(a1-6)]GlcNAc
# Outline: as §1
# [15] = molecular target: Fuc(a1-2)[Gal(a1-3)]Gal(b1-4)GlcNAc(b1-3)GalNAc
# Outline: as §1
# [16] = molecular target: Fuc(a1-2)[Gal(a1-3)]Gal(b1-4)GlcNAc(b1-3)[Fuc(a1-2)[Gal(a1-3)]Gal(b1-4)GlcNAc(b1-6)]GalNAc
# Outline: as §1
# [17] = molecular target: Fuc(a1-2)[Gal(a1-3)]Gal(b1-4)GlcNAc(b1-6)GalNAc
# Outline: as §1
# [18] = molecular target: Fuc(a1-2)[Gal(a1-3)]Gal(b1-4)[Fuc(a1-3)]Glc
# Outline: as §1
# [19] = molecular target: Fuc(a1-2)[Gal(a1-3)]Gal(b1-4)[Fuc(a1-3)]GlcNAc
# Outline: as §1
# [20] = molecular target: Fuc(a1-2)[Gal(a1-3)]Gal(b1-4)[Fuc(a1-3)]GlcNAc(b1-3)GalNAc
# Outline: as §1
# [21] = molecular target: Fuc(a1-2)[Gal(a1-4)]Gal(b1-4)GlcNAc
# Outline: as §1
# [22] = molecular target: Fuc(a1-2)[GalNAc(a1-3)]Gal
# Outline: as §1
# [23] = molecular target: Fuc(a1-2)[GalNAc(a1-3)]Gal(b1-3)GalNAc(a1-3)[Fuc(a1-2)]Gal(b1-4)GlcNAc
# Outline: as §1
# [24] = molecular target: Fuc(a1-2)[GalNAc(a1-3)]Gal(b1-3)GalNAc(b1-3)Gal(a1-4)Gal(b1-4)Glc
# Outline: as §1
# [25] = molecular target: Fuc(a1-2)[GalNAc(a1-3)]Gal(b1-3)GlcNAc
# Outline: as §1
# [26] = molecular target: Fuc(a1-2)[GalNAc(a1-3)]Gal(b1-3)GlcNAc(b1-2)Man(a1-3)[Fuc(a1-2)[GalNAc(a1-3)]Gal(b1-3)GlcNAc(b1-2)Man(a1-6)]Man(b1-4)GlcNAc(b1-4)GlcNAc
# Outline: as §1
# [27] = molecular target: Fuc(a1-2)[GalNAc(a1-3)]Gal(b1-3)GlcNAc(b1-2)Man(a1-3)[Fuc(a1-2)[GalNAc(a1-3)]Gal(b1-3)GlcNAc(b1-2)Man(a1-6)]Man(b1-4)GlcNAc(b1-4)[Fuc(a1-6)]GlcNAc
# Outline: as §1
# [28] = molecular target: Fuc(a1-2)[GalNAc(a1-3)]Gal(b1-3)GlcNAc(b1-3)GalNAc
# Outline: as §1
# [29] = molecular target: Fuc(a1-2)[GalNAc(a1-3)]Gal(b1-3)GlcNAc(b1-6)GalNAc
# Outline: as §1
# [30] = molecular target: Fuc(a1-2)[GalNAc(a1-3)]Gal(b1-4)Glc
# Outline: as §1
# [31] = molecular target: Fuc(a1-2)[GalNAc(a1-3)]Gal(b1-4)GlcNAc
# Outline: as §1
# [32] = molecular target: Fuc(a1-2)[GalNAc(a1-3)]Gal(b1-4)GlcNAc(b1-2)Man
# Outline: as §1
# [33] = molecular target: Fuc(a1-2)[GalNAc(a1-3)]Gal(b1-4)GlcNAc(b1-2)Man(a1-3)[Fuc(a1-2)[GalNAc(a1-3)]Gal(b1-4)GlcNAc(b1-2)Man(a1-6)]Man(b1-4)GlcNAc(b1-4)GlcNAc
# Outline: as §1
# [34] = molecular target: Fuc(a1-2)[GalNAc(a1-3)]Gal(b1-4)GlcNAc(b1-2)Man(a1-3)[Fuc(a1-2)[GalNAc(a1-3)]Gal(b1-4)GlcNAc(b1-2)Man(a1-6)]Man(b1-4)GlcNAc(b1-4)[Fuc(a1-6)]GlcNAc
# Outline: as §1
# [35] = molecular target: Fuc(a1-2)[GalNAc(a1-3)]Gal(b1-4)GlcNAc(b1-3)Gal(b1-4)GlcNAc
# Outline: as §1
# [36] = molecular target: Fuc(a1-2)[GalNAc(a1-3)]Gal(b1-4)GlcNAc(b1-3)Gal(b1-4)GlcNAc(b1-3)Gal(b1-4)GlcNAc
# Outline: as §1
# [37] = molecular target: Fuc(a1-2)[GalNAc(a1-3)]Gal(b1-4)GlcNAc(b1-3)GalNAc
# Outline: as §1
# [38] = molecular target: Fuc(a1-2)[GalNAc(a1-3)]Gal(b1-4)GlcNAc(b1-3)[Fuc(a1-2)[GalNAc(a1-3)]Gal(b1-4)GlcNAc(b1-6)]GalNAc
# Outline: as §1
# [39] = molecular target: Fuc(a1-2)[GalNAc(a1-3)]Gal(b1-4)GlcNAc(b1-6)GalNAc
# Outline: as §1
# [40] = molecular target: Fuc(a1-2)[GalNAc(a1-3)]Gal(b1-4)[Fuc(a1-3)]GlcNAc
# Outline: as §1
# [41] = molecular target: Fuc(a1-2)[GalNAc(a1-3)]Gal(b1-4)[Fuc(a1-3)]GlcNAc(b1-3)GalNAc
# Outline: as §1
# [42] = molecular target: Fuc(a1-2)[GalNAc(a1-4)]Gal(b1-4)GlcNAc
# Outline: as §1
# [43] = molecular target: Fuc(a1-2)[GalNAc(b1-3)]Gal
# Outline: as §1
binder,measurement,setting,value
B1,glycan array binding signal (z-score),[1],0.625
same,glycan array binding signal (z-score),Fuc(a1-2)Gal6S(b1-4)Glc,0.121
same,glycan array binding signal (z-score),[2],2.55
same,glycan array binding signal (z-score),Fuc(a1-2)[Gal(a1-3)]Gal,-0.194
same,glycan array binding signal (z-score),[3],-0.393
same,glycan array binding signal (z-score),[4],-0.537
same,glycan array binding signal (z-score),[5],-0.149
same,glycan array binding signal (z-score),[6],0.416
same,glycan array binding signal (z-score),[7],-0.338
same,glycan array binding signal (z-score),[8],-0.498
same,glycan array binding signal (z-score),[9],0.661
same,glycan array binding signal (z-score),[10],-0.412
same,glycan array binding signal (z-score),[11],-1.34
same,glycan array binding signal (z-score),[12],-0.34
same,glycan array binding signal (z-score),[13],0.493
same,glycan array binding signal (z-score),[14],-0.191
same,glycan array binding signal (z-score),[15],0.748
same,glycan array binding signal (z-score),[16],-0.413
same,glycan array binding signal (z-score),[17],0.089
same,glycan array binding signal (z-score),[18],0.262
same,glycan array binding signal (z-score),[19],-0.326
same,glycan array binding signal (z-score),[20],-0.404
same,glycan array binding signal (z-score),[21],-0.539
same,glycan array binding signal (z-score),[22],-0.759
same,glycan array binding signal (z-score),[23],-1.37
same,glycan array binding signal (z-score),[24],-0.303
same,glycan array binding signal (z-score),[25],-0.231
same,glycan array binding signal (z-score),[26],-0.077
same,glycan array binding signal (z-score),[27],-0.728
same,glycan array binding signal (z-score),[28],0.524
same,glycan array binding signal (z-score),[29],-0.421
same,glycan array binding signal (z-score),[30],-0.366
same,glycan array binding signal (z-score),[31],-0.064
same,glycan array binding signal (z-score),[32],-0.539
same,glycan array binding signal (z-score),[33],0.566
same,glycan array binding signal (z-score),[34],-0.4
same,glycan array binding signal (z-score),[35],-0.891
same,glycan array binding signal (z-score),[36],0.731
same,glycan array binding signal (z-score),[37],-0.541
same,glycan array binding signal (z-score),[38],-0.539
same,glycan array binding signal (z-score),[39],0.845
same,glycan array binding signal (z-score),[40],0.412
same,glycan array binding signal (z-score),[41],2.1
same,glycan array binding signal (z-score),[42],1.66
same,glycan array binding signal (z-score),[43],-0.317

# An excerpt of these results, bar-delimited.
binder | measurement | setting | value
B1 | glycan array binding signal (z-score) | [15] | 0.748
same | glycan array binding signal (z-score) | [20] | -0.404
same | glycan array binding signal (z-score) | [24] | -0.303
same | glycan array binding signal (z-score) | [26] | -0.077
same | glycan array binding signal (z-score) | [31] | -0.064
same | glycan array binding signal (z-score) | [34] | -0.4
same | glycan array binding signal (z-score) | [39] | 0.845
same | glycan array binding signal (z-score) | [42] | 1.66
same | glycan array binding signal (z-score) | [43] | -0.317
